From US20050271651A1, “Inhibition of bright function as a treatment for excessive immunoglobulin production” (Oklahoma Medical Research Foundation, published 2005) come the findings set out here.

Where cells or extracts were used, other partners may take part. Negatives hold for the conditions tested. Protein sequences can lack the tags named with them.

The series has as its target T1, Bright (ARID3A), native nuclear extract 300212/CL01/K562 (Homo sapiens) (UniProt Q99856).
T1 sequence (limits assumed): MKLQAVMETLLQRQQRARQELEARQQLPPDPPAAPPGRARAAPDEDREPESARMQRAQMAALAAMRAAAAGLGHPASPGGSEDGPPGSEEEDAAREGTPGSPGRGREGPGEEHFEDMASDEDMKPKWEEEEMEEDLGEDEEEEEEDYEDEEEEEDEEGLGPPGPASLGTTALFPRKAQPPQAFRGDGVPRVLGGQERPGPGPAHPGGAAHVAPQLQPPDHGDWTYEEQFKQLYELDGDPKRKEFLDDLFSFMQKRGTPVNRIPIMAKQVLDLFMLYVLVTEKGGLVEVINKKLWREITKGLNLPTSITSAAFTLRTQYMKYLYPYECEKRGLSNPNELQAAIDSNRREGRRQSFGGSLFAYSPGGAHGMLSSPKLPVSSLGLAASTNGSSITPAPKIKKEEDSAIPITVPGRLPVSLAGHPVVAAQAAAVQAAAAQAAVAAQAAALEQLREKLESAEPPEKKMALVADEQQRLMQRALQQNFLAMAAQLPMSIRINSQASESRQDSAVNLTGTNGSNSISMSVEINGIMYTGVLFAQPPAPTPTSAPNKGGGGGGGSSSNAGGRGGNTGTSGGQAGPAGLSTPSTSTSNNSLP
Briefly: competition with a labelled probe. Conditions: 10-1000 molar excess does not compete, 300212 extract; protein in an extract.

As to “TAAGTATAAATATGTACATGAGTACACCCTCCACTTATTTATCTTA (double strand) [mutated Bright site competitor]”, the binding result is listed as “no binding”.
